# Primary screen of a compound library

Protein sequences, listed by entry. Tags and fused reporters are not part of them.
UniProt E9BF75, entry or part of it: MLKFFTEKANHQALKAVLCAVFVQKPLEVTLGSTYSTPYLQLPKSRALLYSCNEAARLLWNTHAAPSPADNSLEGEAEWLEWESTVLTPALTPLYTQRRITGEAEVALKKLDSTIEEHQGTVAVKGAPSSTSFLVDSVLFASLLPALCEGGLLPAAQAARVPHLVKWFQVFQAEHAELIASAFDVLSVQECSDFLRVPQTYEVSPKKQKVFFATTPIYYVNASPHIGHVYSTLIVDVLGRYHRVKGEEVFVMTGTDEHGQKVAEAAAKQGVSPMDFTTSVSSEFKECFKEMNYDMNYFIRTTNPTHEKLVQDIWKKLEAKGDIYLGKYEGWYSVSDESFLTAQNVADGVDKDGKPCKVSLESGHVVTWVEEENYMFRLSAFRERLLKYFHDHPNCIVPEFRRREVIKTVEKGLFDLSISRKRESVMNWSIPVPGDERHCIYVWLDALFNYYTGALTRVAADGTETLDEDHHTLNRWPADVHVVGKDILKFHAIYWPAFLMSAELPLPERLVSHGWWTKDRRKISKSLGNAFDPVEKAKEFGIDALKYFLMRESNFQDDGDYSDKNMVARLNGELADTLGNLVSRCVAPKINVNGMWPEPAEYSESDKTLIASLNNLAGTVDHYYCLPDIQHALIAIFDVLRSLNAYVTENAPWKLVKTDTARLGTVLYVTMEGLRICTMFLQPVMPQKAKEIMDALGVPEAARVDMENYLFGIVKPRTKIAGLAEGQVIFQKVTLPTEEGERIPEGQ

Source: ChEMBL document CHEMBL3988442, “University of Dundee, Small-Polar-MMV Screening Library” (2021).

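Methionyl-tRNA synthetase (putative), Leishmania donovani (UniProt E9BF75). Primary screen of methionyl-tRNA synthetase; the read-out is not stated. The test concentration is not given. The values are filed as inhibition. Size under these conditions: about 68,000 compounds, about 24 of them at 50% or above in at least one test.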

All values are in %. The record does not define 0% and 100%; most values in the screen are far below 50% and negative numbers occur (in some assays of this library far below -100). This is an unselected part of the compounds tested.

SMILES | Inhibition
CC(NC(=O)NC1CCN(Cc2ccccn2)CC1)c1ccco1 (stereo unspecified) | 8.078
O=C(c1ccncc1)N1CCN(Cc2cccnc2)c2ncccc2C1 | 15.62
CN(C)CC(=O)N1Cc2ncn(C)c2C(COCC2CCOCC2)C1 (stereo unspecified) | 10.48
Cc1cccc(CN2CCC(c3nccn3CC(N)=O)CC2)n1 | 8.993
Cc1nn2cnnc2c(C)c1CCC(=O)Nc1nc2c(s1)CCC2 | 17.69
COc1ccc(CNC(=O)c2ccc(Br)cn2)cc1 | 3.686
CCCc1nnsc1C(=O)NCC1CCN(S(C)(=O)=O)CC1 | 13.3
CN(CC(N)=O)CC(=O)N1CC=C(c2ccccc2)CC1 | 9.859
Cc1nn(C)c(C)c1C1CCCN1CC(=O)Nc1ccncc1 (stereo unspecified) | 0.6536
O=C([C@H]1CC[C@@H]2[C@@H](CCN2Cc2ccsc2)O1)N1CCOCC1 | 5.926
O=C(NC1CC1)c1cc2c(s1)CCN2C(=O)C1CC1 | 10.38
CC(C)N1CC[C@H](c2nnc(Cc3c[nH]c4ccccc34)o2)C1 | 9.774
O=C(C1CCCCO1)N1CCc2ncnc(NCCO)c2CC1 (stereo unspecified) | 18.77
O=C(c1ccc2nncn2c1)N1CCCCC1Cn1cccn1 (stereo unspecified) | 2.023
Cn1cc(CN2CCCC3(CCN(Cc4ccncc4)C3=O)C2)cn1 (stereo unspecified) | 10.68
Cc1ccccc1CN1CCC(NCC2CNc3ccnn3C2)CC1 (stereo unspecified) | 15.24
Cc1cc(CN2CC[C@H]3C[C@H](c4nccs4)O[C@@H]3C2)no1 | 7.071
OCCOCCNCC1(c2ccc(F)cc2)CCOC1 (stereo unspecified) | 10.45
Cn1ncc2c(=O)[nH]c(CN3CCc4ccccc4C3)nc21 | 17.32
CC(C)NC(=O)N1C[C@@H](F)[C@@H](OCc2nc3ccccc3o2)C1 | 11.19
CCOC(=O)CNC(=O)N1CCOC(CCc2ccccc2)C1 (stereo unspecified) | -2.091
COCCN(Cc1ccccn1)C(=O)CC1OCCc2sccc21 (stereo unspecified) | 2.997
Cc1ccc(NC2CCN(C(=O)CCC3CCCO3)CC2)nn1 (stereo unspecified) | 11.08
Cc1nccc(CNC(=O)NCCOc2ccc(F)c(F)c2)n1 | 7.609
CC(C)N(C)Cc1ncn2c1CN(S(=O)(=O)c1cccs1)CCC2 | 8.148
Cc1cc(N2CCN(C(=O)c3cc(Cl)c[nH]3)CC2)nc(N)n1 | 24.5
CCn1ncc2[nH]c(-c3cc(OC)c(OC)cc3OC)nc21 | 7.256
CCO[C@@H]1CC[C@H]2[C@H]1OCCN2CC1CCOCC1 | 10.18
CC(NC(=O)CCCOc1ccccc1Cl)c1ccncc1 (stereo unspecified) | 3.448
COCCN(Cc1ccccn1)C(=O)CC1OCCc2ccccc21 (stereo unspecified) | -10.08
CCNc1cc2c(nn1)CCN(C(=O)c1ccoc1)C2 | 11.6
CCn1cc(CN(C)C(=O)c2cccc(CCC(C)(C)O)c2)cn1 | 11.71
CCOCc1cccc(NCc2c[nH]nc2-c2cccnc2)c1 | 11.68
O=C(CCN1C[C@@H]2CC[C@H]1C2)N1CCN(c2cccc(Cl)c2)C(=O)C1 | 6.527
CNC(=O)[C@@]12CCO[C@@H]1CCN(Cc1ccc3c(c1)OCO3)C2 | -2.186
Cc1cn2c(=O)c(-c3ccnc(N[C@@H](C)CO)n3)cnc2s1 | 10.44
CC(C)NC(=O)[C@@H]1C[C@H](N)CN1C(=O)c1cc2c([nH]c1=O)CCCC2 | 17.7
CC(=O)NCC1CCN(C(=O)CCOc2ccc(C(C)C)cc2)CC1 | 22.95
Cc1nc(CN(C)C)cc(N2CCCC(COc3ccc(F)cc3)C2)n1 (stereo unspecified) | 15.69
CN(C)C1CCN(C(=O)NCc2ccccc2Cn2cncn2)CC1 | 11.96
CCOc1cc(=O)n2c(c1C(=O)OCc1ccc(C)cc1)CCCC2 | 5.497
O=C(NCCCNC(=O)c1ccc(F)cc1F)c1cccc(O)c1 | 21.97
Cc1ccc(OC2(C(=O)O)CCN(C(=O)c3ccccc3F)CC2)cn1 | 10.44
Cc1cccc(C)c1CNC1(CCO)CCOCC1 | 13.83
Cc1ccc(CNC(=O)Nc2nnc(C)s2)cn1 | 3.937
Cc1nc(C2CCCN2C(=O)c2ccc(=O)n(C)n2)no1 (stereo unspecified) | 2.957
O=C(NCc1cccnc1)NCC(O)c1cccc(C(F)(F)F)c1 (stereo unspecified) | 12.54
N#Cc1ccccc1N1CCCN(C(=O)CCc2ccco2)CC1 | 12.65
CN(Cc1ccco1)[C@@H]1CN(Cc2ccncc2)C[C@@H]2CCCO[C@@H]21 | 9.804
Cc1c(C)n(CC(O)CN2CCOCC2)c2c(Cl)cccc12 (stereo unspecified) | 9.317
O=C(COc1ccc2c(c1)CCC2)NS(=O)(=O)c1cccnc1 | 16.32
NC(=O)c1ccc(CN2CCC(N3CCCC3)CC2)cc1 | 17.17
CC(C)C1CCCN1CC(=O)NCc1ccc(OCC(N)=O)cc1 (stereo unspecified) | 8.877
CCc1ccc(OCC(O)CN2CCN(S(C)(=O)=O)CC2)cc1 (stereo unspecified) | 1.389
NC(=O)c1cnc(NCC(=O)NCc2ccccc2)c(Cl)c1 | 4.712
CCn1cnnc1CNC(=O)C1CCCN(Cc2cccc(F)c2)C1 (stereo unspecified) | 8.791
CCOC(=O)N1CCN(C(=O)CCn2ccc3c(OC)cccc32)CC1 | 7.746
CC(=O)N1CCN([C@@H]2CN(C(=O)c3ccccc3)C[C@H]2O)CC1 | 18.99
Cc1noc(C(C)N2CCN(CCC(=O)N3CCOCC3)CC2)n1 (stereo unspecified) | 17.46
CCCN1CCCn2c(nc(CNC(=O)c3ccsc3)cc2=O)C1 | 9.408
CCc1c(C)[nH]c(C2(N)CCCC2)nc1=O | 16.19
CN1CCCN(C(=O)c2nc3c(o2)CN(S(C)(=O)=O)C3)CC1 | 5.714
COCCN1CCCC2(CCN(Cc3nnc(C4CC4)o3)C2)C1=O (stereo unspecified) | 3.75
O=C(C1CN(CC2CC2)CC12CCOCC2)N1CCOCC1 (stereo unspecified) | 17.79
COc1ccc(CN2CCOC[C@H](OCCC(C)C)C2)cc1 | 6.767
Cc1noc(C)c1CN1CCc2c(CNc3nccs3)n[nH]c2C1 | 13.54
Cc1ccc(N2Cc3cnn(Cc4ccc(F)cc4)c3C2)nn1 | 16.76
O=C(NCC(O)c1ccc(F)cc1F)c1ccccc1F (stereo unspecified) | 4.945
CCc1ncc2c(n1)CN(C(C)C(=O)Nc1ccc(Cl)cn1)CC2 (stereo unspecified) | 0.289

Some entries from above, unchanged:

SMILES,Inhibition
CN(C)C1CCN(C(=O)NCc2ccccc2Cn2cncn2)CC1,11.96
Cc1nccc(CNC(=O)NCCOc2ccc(F)c(F)c2)n1,7.609
CN1CCCN(C(=O)c2nc3c(o2)CN(S(C)(=O)=O)C3)CC1,5.714
O=C(NC1CC1)c1cc2c(s1)CCN2C(=O)C1CC1,10.38
Cc1cccc(CN2CCC(c3nccn3CC(N)=O)CC2)n1,8.993
CN(C)CC(=O)N1Cc2ncn(C)c2C(COCC2CCOCC2)C1 (stereo unspecified),10.48